Test results published in PMC11395145, “The Archetypal Gamma-Core Motif of Antimicrobial Cys-Rich Peptides Inhibits H^+-ATPases in Target Pathogens” (International Journal of Molecular Sciences, 2024).

By UniProt entry, the sequences of proteins in these tests, tags left out. Where a name states a change or a piece, a line headed by the entry shows the natural chain unless it says otherwise.
UniProt P28877: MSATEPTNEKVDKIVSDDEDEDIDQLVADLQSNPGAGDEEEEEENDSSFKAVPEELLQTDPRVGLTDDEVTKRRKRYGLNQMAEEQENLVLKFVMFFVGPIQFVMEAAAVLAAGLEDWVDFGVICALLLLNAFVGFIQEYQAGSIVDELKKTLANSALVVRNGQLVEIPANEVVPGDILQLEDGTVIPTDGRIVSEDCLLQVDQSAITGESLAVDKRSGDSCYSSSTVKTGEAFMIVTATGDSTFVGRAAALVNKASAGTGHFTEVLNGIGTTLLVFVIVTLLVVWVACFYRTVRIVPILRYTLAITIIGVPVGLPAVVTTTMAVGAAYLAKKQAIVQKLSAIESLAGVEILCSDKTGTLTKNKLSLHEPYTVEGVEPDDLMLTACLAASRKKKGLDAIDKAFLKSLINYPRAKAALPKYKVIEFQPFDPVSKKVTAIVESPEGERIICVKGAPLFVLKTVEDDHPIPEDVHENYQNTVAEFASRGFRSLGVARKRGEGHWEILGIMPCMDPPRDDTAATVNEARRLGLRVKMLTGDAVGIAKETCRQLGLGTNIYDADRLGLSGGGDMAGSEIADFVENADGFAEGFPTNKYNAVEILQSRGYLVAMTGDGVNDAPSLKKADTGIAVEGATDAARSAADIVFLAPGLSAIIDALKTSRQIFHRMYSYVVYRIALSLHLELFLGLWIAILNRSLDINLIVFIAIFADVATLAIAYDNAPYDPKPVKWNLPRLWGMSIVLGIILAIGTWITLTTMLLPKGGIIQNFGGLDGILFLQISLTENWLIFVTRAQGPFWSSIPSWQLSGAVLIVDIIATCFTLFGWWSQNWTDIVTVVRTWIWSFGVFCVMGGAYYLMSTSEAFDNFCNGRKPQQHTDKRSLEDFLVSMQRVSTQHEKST

Legend:
[1] = system: Candida albicans ATCC 10231; assay: Microbicidal (spread-plate cell viability) assay, candidacidal activity; format: cell-based
Protocol: (§1) First, we tested the antimicrobial activity of Kal-1 and a shorter Kal-1-derived peptide (Kdp15), both containing the complete γ-core signature of human lactoferrin, against C. albicans and P. aeruginosa. Microbicidal (cidal) activity was determined after 90 min of incubation (37 °C; pH 7.4) with a range of concentrations of each hLf-derived peptide.
(§2) Figure 1 Cell viability and membrane permeabilization assays. C. albicans or P. aeruginosa (10^6 cells/mL) were incubated (90 min, 37 °C) with each peptide/protein at the indicated concentrations. Aliquots were plated on SDA or […], and colonies were counted after 24–48 h (C. albicans) or 24 h (P. aeruginosa). At each point, samples were stained with propidium iodide (PI) and intracellular PI incorporation, indicative of membrane permeabilization, was quantified by flow cytometry. The relative cell viability (blue lines) and cellular permeabilization (red lines) were calculated as the percentage of untreated cells. Human lactoferrin (hLf) and the peptide Lfpep were used as negative and positive controls of cellular permeabilization, respectively.
(§3) Microbial susceptibility to the peptides was determined in a spread-plate assay as described previously. Briefly, two-fold serially diluted peptides were incubated (37 °C) with approximately 10^6 cells/mL in Tris buffer (10 mM Tris-HCl, pH 7.4). After 90 min of incubation with the peptides, aliquots were removed and plated in duplicate on an appropriate agar plate for each species (SDA for C. albicans, TSA for P. aeruginosa). The plates were incubated for 24–48 h at 30 °C (C. albicans) or 24 h at 37 °C (P. aeruginosa) for enumeration. The cell viability values, expressed as colony forming units (CFUs), were determined relative to incubation without added peptides and represent the mean ± standard deviation (±SD) of at least three independent determinations. For inhibition assays, the cell suspensions were preincubated (15 min at 37 °C) with the corresponding inhibitors before the addition of peptides. Water-insoluble inhibitors were prepared in DMSO, such that the final assay volume was ≤1%. Other specific experimental inhibition conditions are described where appropriate. The IC50 value is expressed as the concentration that caused 50% reduction in viable counts.

[2] = system: Pseudomonas aeruginosa 10145 (PAO1); assay: Microbicidal (spread-plate cell viability) assay, pseudomonacidal activity; format: cell-based
Protocol: as §1, §2
as §3, with “Water-insoluble inhibitors were prepared in DMSO, such that the final assay volume was ≤1%. Other specific experimental inhibition conditions are described where appropriate. The IC50 value is expressed as the concentration that caused 50% reduction in viable counts.” left out

[3] = system: C. albicans cells; assay: Cell membrane permeability assay (propidium iodide, flow cytometry); format: cell-based, Candida albicans; conditions: 90 min, 37 °C, range of concentrations, PI 9 μM
Protocol: (§4) To determine whether Kal-1 and Kdp15 exert a permeabilizing effect on fungal or bacterial membranes, the cellular influx of the fluorescent nucleic-acid-binding dye propidium iodide (PI) was assessed. As PI itself cannot permeate through an intact phospholipid bilayer, only permeabilized cells take up PI, resulting in DNA intercalation and fluorescence.
(§5) Flow cytometry was used to assess the ability of peptides to permeabilize plasma membranes of cells in incorporation of the DNA intercalating dye propidium iodide (PI). C. albicans or P. aeruginosa cells (10^6 cells/mL) in Tris buffer were incubated with two-fold serially diluted peptides for 90 min at 37 °C and subsequently reincubated with PI (9 μM, final concentration) for 5 min. The suspensions were centrifuged at 1100× g for 10 min and subsequently washed with Tris buffer to remove any unbound PI. The peptide Lfpep was used to disrupt the cytoplasmic membrane (positive control). Cell fluorescence was monitored using a Cytomics FC500 Flow Cytometer (Beckman Coulter Life Sciences, Indianapolis, IN, USA). The PI fluorescence was excited at a wavelength of 488 nm and emission was registered at 610 nm. For each treatment, 20,000 events were measured. Data were acquired and analyzed using CytExpert 2.1 software. Results were expressed as the percentage of PI-positive cells with respect to the unstained cells (control). […]

[4] = system: P. aeruginosa cells; assay: as above; format: cell-based, Pseudomonas aeruginosa; conditions: 90 min, 37 °C
Protocol: as §4, §5

[5] = system: C. albicans cells; assay: Oxygen consumption measurement (Clark-type electrode); format: cell-based, Candida albicans; conditions: 5 × 10^6 cells/mL, peptides at IC50, piericidin A 32 μM, at least 30 min, 25 °C
Protocol: (§6) Figure 3 Effect of cellular respiration on the microbicidal activity of hLf γ-core-containing peptides. (A,C) Oxygen consumption was measured in C. albicans and P. aeruginosa cellular suspensions in the absence (control) or the presence of kaliocin-1 (Kal-1), Kdp15, or human lactoferrin (hLf), and piericidin A (positive control). (B,D) Effect of cellular respiration on the microbicidal activity of hLf γ-core-containing peptides. Cells (10^6 cells/mL) were pre-incubated (15 min, 37 °C) with 32 μM piericidin A and incubated for 90 min at 37 °C with the peptides hLf or BM2. The cell viability was determined by means of the plate counting method. The results are the mean ± SD from duplicates of at least three independent experiments. * p < 0.05, ** p < 0.01, and *** p < 0.001 were used.
(§7) C. albicans or P. aeruginosa cells were grown to the mid-logarithmic phase, washed twice in Tris buffer, and resuspended in the same buffer, as described in [9, 10]. Briefly, cells (5 × 10^6 cells/mL) were pre-incubated for 15 min at 37 °C with the peptides (IC50). […] Oxygen consumption was measured using a Clark-type oxygen electrode (Dual digital-model 20, Rank Brothers Ltd., Cambridge, UK) in a closed jacketed chamber maintained at 25 °C. […] The viability of the cells was determined at 30 min by removing aliquots from the oxygen chambers and plating the subsequent dilutions on SDA or TSA plates.

[6] = system: P. aeruginosa cells; assay: as above; format: cell-based, Pseudomonas aeruginosa; conditions: 5 × 10^6 cells/mL, peptides at IC50, piericidin A 32 μM, at least 30 min, 25 °C
Protocol: as §6, §7

[7] = system: C. albicans cells; assay: Measurement of intracellular ATP (BacTiter-Glo); format: cell-based, Candida albicans; conditions: C. albicans 10^6 cells/mL, candidacidal concentration, 90 min, 37 °C; BM2 0.25 μM
Protocol: Total ATP was measured by using the BacTiter-Glo^TM Microbial Cell Viability Assay (Promega Co., Madison, WI, USA) according to the manufacturer’s instructions. […] Aliquots (100 μL) were incubated (90 min at 37 °C) with kaliocin-1, Kdp15, or human lactoferrin and the BM2 peptide (positive control). One hundred microliters of incubation mix was transferred into a 96-well opaque white plate, mixed with an equal volume of the BacTiter-Glo reagent, and incubated for 15 min in the dark. The reagent used a thermostable luciferase to produce luminescence in an ATP-dependent manner. The emitted luminescence was detected by using a Varioskan Flash multimode reader (Thermo Scientific, Waltham, MA, USA) with a 10 s of shaking and 1 s integration time. A calibration curve was prepared for each experiment, with ATP standards ranging from 1 to 1000 nM. For assays performed in the presence of the BM2 peptide, samples were preincubated with 0.25 μM BM2 for 30 min at 37 °C. All the tests were performed in triplicate at least four times.

[8] = target: Pma1p H^+-ATPase (Candida albicans, UniProt P28877); conditions: starved C. albicans 10^7 cells/mL in 50 mM KCl, pre-incubated with peptide 2 × IC50, 2.5 mM glucose; control ~1.3 pH units
[9] = Tris buffer with 50 mM KCl vs without
[10] = cells pre-incubated 15 min, 37 °C with 32 μM piericidin A, then 90 min with peptide

Sequence: FFSASCVPGADKGQFPNLCRLCAGTGENKCA [Kaliocin-1]
- IC50 ([1]; 90 min, 37 °C, 10 mM Tris-HCl pH 7.4, 10^6 cells/mL, CFU plating, estimated, read-out: IC50 (concentration that caused 50% reduction in viable counts) against C. albicans): 40 µM
- effect of high external K^+ on candidacidal activity [1, 9]: seemed to protect
- effect of mitochondrial ATP synthase inhibition (oligomycin A) on candidacidal activity ([1]; cells pre-incubated 15 min, 37 °C with 16 μg/mL oligomycin A): less susceptible
- effect of respiration inhibition (piericidin A) on candidacidal activity [1, 10]: less susceptible
- effect of Tok1p K^+ channel block (TEA^+) on candidacidal activity ([1]; cells pre-incubated 15 min with 10 mM TEA^+): less susceptible
- IC50 against C. albicans relative to IC50 of native hLf (fold greater) ([1]; vs hLf IC50 3 μM): approximately 13 fold
- IC50 ([2]; 90 min, 37 °C, 10 mM Tris-HCl pH 7.4, 10^6 cells/mL, CFU plating, read-out: IC50 (concentration that caused 50% reduction in viable counts) against P. aeruginosa): 7.5 µM
- effect of high external K^+ on pseudomonacidal activity [2, 9]: seemed to protect
- effect of respiration inhibition (piericidin A) on pseudomonacidal activity [2, 10]: less susceptible
- PI fluorescent cells (plasma membrane permeabilization), C. albicans [3]: not significantly increased
- concentration giving dose-dependent PI uptake (membrane permeabilization) in P. aeruginosa [4]: ≥ 25 µM
- oxygen consumption of C. albicans in presence of the substance [5]: equal to that of untreated (control) cells
- oxygen consumption of P. aeruginosa in presence of the substance [6]: equal to that of untreated (control) cells
- increment in intracellular ATP (iATP) level compared to untreated control [7]: ~ 8 fold
- decrease of external pH after 20 min (glucose-induced acidification) [8]: approximately 0.5 pH units
